Measured values from paper PMC8184923.
These are yes or no findings as the source states them, for the method shown. In cells and extracts the contact can be indirect. Some results given as binding are weak or reduced against the parent protein; the word gives no strength.

By UniProt entry, the sequences of proteins in these tests, tags left out.
UniProt Q13535: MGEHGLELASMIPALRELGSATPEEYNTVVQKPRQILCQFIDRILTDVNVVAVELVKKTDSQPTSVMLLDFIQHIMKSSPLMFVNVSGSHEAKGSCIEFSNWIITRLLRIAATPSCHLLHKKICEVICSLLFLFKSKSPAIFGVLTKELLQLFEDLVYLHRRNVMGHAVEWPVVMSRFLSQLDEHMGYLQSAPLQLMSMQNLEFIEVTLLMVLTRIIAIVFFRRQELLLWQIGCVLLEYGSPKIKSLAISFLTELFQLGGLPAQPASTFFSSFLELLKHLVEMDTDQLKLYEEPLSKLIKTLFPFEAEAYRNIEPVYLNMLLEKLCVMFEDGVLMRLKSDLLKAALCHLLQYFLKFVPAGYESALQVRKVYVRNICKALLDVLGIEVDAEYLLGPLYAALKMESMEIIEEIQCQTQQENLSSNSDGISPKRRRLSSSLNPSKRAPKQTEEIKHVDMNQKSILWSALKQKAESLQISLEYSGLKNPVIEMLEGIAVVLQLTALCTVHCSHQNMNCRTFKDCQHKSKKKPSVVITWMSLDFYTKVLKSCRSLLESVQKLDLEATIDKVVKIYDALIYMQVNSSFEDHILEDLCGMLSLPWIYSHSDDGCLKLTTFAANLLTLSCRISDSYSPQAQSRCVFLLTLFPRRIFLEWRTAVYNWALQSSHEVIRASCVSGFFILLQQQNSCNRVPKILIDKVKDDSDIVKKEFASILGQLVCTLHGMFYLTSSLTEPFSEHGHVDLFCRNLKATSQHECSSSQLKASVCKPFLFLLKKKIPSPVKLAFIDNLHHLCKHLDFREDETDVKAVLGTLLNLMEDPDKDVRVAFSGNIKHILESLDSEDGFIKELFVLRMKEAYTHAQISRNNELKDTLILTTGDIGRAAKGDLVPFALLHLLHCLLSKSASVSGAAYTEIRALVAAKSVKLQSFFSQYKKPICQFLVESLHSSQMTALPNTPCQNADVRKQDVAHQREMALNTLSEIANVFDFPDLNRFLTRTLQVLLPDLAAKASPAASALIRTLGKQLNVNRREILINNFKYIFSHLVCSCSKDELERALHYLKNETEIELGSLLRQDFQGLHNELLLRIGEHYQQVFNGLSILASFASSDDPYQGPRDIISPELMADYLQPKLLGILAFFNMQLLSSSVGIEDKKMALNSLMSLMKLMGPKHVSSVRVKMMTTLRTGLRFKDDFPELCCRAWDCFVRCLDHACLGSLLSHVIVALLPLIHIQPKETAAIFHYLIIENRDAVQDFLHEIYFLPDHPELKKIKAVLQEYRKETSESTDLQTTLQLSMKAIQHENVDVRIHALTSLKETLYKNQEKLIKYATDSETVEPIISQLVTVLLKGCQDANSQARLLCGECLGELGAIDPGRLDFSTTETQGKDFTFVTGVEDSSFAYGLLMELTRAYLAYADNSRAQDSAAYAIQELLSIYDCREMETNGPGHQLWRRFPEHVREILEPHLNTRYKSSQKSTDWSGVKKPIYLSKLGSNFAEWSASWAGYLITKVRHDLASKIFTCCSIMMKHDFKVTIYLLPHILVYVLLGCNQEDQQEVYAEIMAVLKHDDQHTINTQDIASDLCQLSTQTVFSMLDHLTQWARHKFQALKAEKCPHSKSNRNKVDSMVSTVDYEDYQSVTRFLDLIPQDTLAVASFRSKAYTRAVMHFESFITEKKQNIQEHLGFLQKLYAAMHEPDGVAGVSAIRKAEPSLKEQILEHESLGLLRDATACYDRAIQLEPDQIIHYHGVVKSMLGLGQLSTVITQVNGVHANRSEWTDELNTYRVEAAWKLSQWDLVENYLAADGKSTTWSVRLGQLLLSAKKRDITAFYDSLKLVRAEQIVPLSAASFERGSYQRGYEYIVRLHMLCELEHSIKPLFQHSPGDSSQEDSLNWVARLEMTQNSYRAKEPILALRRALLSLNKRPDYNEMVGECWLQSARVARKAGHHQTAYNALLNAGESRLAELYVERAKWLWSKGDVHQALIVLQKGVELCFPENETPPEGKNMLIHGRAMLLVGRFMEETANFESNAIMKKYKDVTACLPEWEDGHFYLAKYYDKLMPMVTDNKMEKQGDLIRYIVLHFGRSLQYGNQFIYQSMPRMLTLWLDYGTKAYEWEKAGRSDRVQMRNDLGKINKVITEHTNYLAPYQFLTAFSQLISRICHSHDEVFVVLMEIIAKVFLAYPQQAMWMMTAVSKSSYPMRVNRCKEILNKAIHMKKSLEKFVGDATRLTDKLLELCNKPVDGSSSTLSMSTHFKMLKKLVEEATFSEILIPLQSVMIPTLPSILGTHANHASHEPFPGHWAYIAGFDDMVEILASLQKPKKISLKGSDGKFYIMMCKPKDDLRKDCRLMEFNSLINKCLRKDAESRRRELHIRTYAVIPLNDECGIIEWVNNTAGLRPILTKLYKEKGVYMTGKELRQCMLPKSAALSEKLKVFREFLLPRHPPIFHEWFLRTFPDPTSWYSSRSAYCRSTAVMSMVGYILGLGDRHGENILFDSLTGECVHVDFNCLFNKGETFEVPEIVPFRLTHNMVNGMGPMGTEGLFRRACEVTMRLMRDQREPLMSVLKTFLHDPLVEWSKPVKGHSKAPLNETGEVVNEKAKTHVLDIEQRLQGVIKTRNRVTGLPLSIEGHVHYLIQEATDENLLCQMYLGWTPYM
UniProt P23771: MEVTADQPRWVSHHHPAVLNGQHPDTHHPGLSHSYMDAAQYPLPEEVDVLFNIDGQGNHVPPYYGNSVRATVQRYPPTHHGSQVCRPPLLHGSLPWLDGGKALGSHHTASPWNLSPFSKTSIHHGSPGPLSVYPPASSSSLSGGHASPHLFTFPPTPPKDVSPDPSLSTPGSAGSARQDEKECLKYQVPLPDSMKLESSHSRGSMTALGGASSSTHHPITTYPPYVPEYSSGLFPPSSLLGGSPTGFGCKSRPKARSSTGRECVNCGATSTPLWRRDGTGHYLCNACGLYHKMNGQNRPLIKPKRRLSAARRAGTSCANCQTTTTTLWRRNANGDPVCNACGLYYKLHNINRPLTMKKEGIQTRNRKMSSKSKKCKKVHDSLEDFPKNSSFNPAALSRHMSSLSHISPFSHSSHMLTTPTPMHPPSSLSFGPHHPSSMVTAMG

What was measured:
[1] = target: T1, Chk1 (human (endogenous in primary CD4+ T cells)) (UniProt O14757); assay: co-IP; Chk1 antibody (E250, Abcam) on Protein G beads, incubated overnight at 4 °C with RIPA lysates of CD27/CD45RA defined CD4+ T cell subsets; western blot for GATA3 and PGC1α
T1 sequence: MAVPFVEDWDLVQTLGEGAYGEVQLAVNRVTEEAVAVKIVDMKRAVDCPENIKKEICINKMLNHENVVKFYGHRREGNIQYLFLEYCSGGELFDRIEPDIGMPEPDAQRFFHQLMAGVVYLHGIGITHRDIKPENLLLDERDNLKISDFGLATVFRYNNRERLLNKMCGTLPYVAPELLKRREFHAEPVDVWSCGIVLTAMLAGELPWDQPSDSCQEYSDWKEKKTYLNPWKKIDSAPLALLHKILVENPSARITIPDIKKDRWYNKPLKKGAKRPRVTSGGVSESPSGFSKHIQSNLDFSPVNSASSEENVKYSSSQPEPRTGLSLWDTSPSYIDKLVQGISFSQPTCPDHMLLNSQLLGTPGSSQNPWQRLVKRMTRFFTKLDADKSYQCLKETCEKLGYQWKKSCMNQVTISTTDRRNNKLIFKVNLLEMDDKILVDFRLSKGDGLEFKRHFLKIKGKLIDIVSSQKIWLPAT

[2] = target: Serine/threonine-protein kinase ATR (ATR) (human (endogenous in primary CD4+ T cells)) (UniProt Q13535); assay: as above
[3] = target: T2, peroxisome-proliferator-activated receptor γ coactivator-1α (PGC1α) (human (endogenous in primary CD4+ T cells)) (UniProt Q9UBK2); assay: co-IP; pull down of PGC1α after control or GATA3 siRNA knockdown; blot for ATR
T2 sequence: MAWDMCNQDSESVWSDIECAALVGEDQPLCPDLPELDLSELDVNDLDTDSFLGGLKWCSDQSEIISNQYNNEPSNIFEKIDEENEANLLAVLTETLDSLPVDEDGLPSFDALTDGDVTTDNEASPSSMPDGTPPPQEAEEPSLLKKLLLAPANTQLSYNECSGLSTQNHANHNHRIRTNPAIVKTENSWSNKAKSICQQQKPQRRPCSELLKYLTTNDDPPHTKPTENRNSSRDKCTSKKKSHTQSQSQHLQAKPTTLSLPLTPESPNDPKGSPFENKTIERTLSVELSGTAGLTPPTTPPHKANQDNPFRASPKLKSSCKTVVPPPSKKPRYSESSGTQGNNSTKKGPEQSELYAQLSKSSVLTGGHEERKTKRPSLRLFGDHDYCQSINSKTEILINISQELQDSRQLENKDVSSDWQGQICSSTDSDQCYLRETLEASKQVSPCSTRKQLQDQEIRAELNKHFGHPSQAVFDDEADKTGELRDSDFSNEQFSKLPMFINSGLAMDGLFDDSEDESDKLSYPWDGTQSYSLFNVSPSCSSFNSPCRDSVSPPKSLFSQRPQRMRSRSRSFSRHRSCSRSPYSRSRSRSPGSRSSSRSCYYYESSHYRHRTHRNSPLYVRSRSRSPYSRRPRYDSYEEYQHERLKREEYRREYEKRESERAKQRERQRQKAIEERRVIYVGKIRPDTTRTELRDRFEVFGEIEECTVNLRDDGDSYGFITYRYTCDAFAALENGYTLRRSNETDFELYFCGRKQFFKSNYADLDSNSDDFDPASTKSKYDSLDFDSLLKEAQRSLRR

binding [1] | binding [2] | binding [3] | Substance
binds | binds |  | GATA binding protein 3 (GATA3) (from UniProt P23771 1-443)
 |  | binds | Serine/threonine-protein kinase ATR (ATR) (from UniProt Q13535 1-2644)
